Record: PubChem BioAssay AID1159584 (Peter MacCallum Cancer Centre, 2016)

Assay: 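Genes whose loss is lethal only together with E-cadherin loss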 (primary screen)
System: human MCF10A breast epithelial cells, parental and CDH1-null
Reagent: siRNA against human genes
Read-out: 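ATP luminescence (CellTiter-Glo) viability per line relative to mean mock wells over all plates, and the ratio of CDH1-null to parental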
Direction: CDH1-null / parental viability ratio: higher = CDH1-null cells survive relatively better than parental; CDH1-null viability vs mock: higher = more viable CDH1-null cells; parental viability vs mock: higher = more viable parental cells
Here is one part, drawn at random, of about 18,000 deposited reagents. Reagent sequences are not shown. Not stated in the record: the amount of reagent, the time to read-out.

| target gene | PubChem SID | CDH1-null / parental viability ratio | CDH1-null viability vs mock (fraction of mock) | parental viability vs mock (fraction of mock) |
| --- | --- | --- | --- | --- |
| BRMS1 (BRMS1 transcriptional repressor and anoikis regulator) | SID152156778 | 1.65 | 0.66 | 0.4 |
| SPECC1L | SID152156522 | 0.92 | 0.65 | 0.71 |
| LZTFL1 (leucine zipper transcription factor like 1) | SID152154681 | 1 | 0.86 | 0.86 |
| HTN3 (histatin 3) | SID134315419 | 1.45 | 1 | 0.69 |
| GPX8 (glutathione peroxidase 8 (putative)) | SID135625377 | 1.07 | 0.94 | 0.88 |
| AMOTL1 (angiomotin like 1) | SID152149462 | 0.96 | 0.48 | 0.5 |
| NATD1 (N-acetyltransferase domain containing 1) | SID135623182 | 0.86 | 0.74 | 0.86 |
| BTG2 (BTG anti-proliferation factor 2) | SID134316588 | 0.9 | 0.86 | 0.96 |
| SLC41A1 | SID152152862 | 0.67 | 0.66 | 0.98 |
| SPANXN3 (SPANX family member N3) | SID135624489 | 1.06 | 0.66 | 0.62 |
| PTGR2 (prostaglandin reductase 2) | SID134313199 | 0.62 | 0.55 | 0.88 |
| PNRC1 (proline rich nuclear receptor coactivator 1) | SID134323684 | 1.05 | 0.68 | 0.65 |
| EVA1B (eva-1 homolog B) | SID134324856 | 1.15 | 0.92 | 0.8 |
| GRIN1 (glutamate ionotropic receptor NMDA type subunit 1) | SID152148363 | 1.33 | 0.8 | 0.6 |
| CHAD (chondroadherin) | SID135622086 | 0.65 | 0.31 | 0.48 |
| SELE (selectin E) | SID135621499 | 0.68 | 0.46 | 0.68 |
| ERCC8 (ERCC excision repair 8, CSA ubiquitin ligase complex subunit) | SID135622035 | 0.97 | 0.86 | 0.89 |
| SDHAF4 (succinate dehydrogenase complex assembly factor 4) | SID134319998 | 1.07 | 0.73 | 0.68 |
| N4BP2 (NEDD4 binding protein 2) | SID152151934 | 0.85 | 0.78 | 0.92 |
| FBN2 (fibrillin 2) | SID152151823 | 1.03 | 0.65 | 0.63 |
| CSN2 (casein beta) | SID152148311 | 0.87 | 0.68 | 0.78 |
| ALPP (alkaline phosphatase, placental) | SID152156234 | 1.2 | 0.84 | 0.7 |
| GPR32 (G protein-coupled receptor 32) | SID134311007 | 1.44 | 0.78 | 0.54 |
| NUFIP1 (nuclear FMR1 interacting protein 1) | SID134323383 | 1.29 | 0.8 | 0.62 |
| ARHGAP22 (Rho GTPase activating protein 22) | SID135623671 | 1.12 | 0.76 | 0.68 |
| CASP10 (caspase 10) | SID152154425 | 1.42 | 0.68 | 0.48 |
| SLC35E2A | SID135621403 | 0.77 | 0.49 | 0.64 |
| PALM (paralemmin) | SID135623782 | 0.68 | 0.56 | 0.82 |
| HIKESHI (heat shock protein nuclear import factor hikeshi) | SID135623225 | 1.05 | 0.78 | 0.74 |
| TIMM17A (translocase of inner mitochondrial membrane 17A) | SID135622384 | 0.98 | 0.92 | 0.94 |
| KMT2D (lysine methyltransferase 2D) | SID152148880 | 1.09 | 1.02 | 0.94 |
| CDK4 (cyclin dependent kinase 4) | SID56478598 | 1.15 | 0.94 | 0.82 |
| REC8 (REC8 meiotic cohesin complex component) | SID152149643 | 0.84 | 0.59 | 0.7 |
| NOP9 (NOP9 nucleolar protein) | SID134321708 | 1.23 | 0.74 | 0.6 |
| RPRD1A (regulation of nuclear pre-mRNA domain containing 1A) | SID152154435 | 0.89 | 0.84 | 0.94 |
| RARA (retinoic acid receptor alpha) | SID152153401 | 0.92 | 0.73 | 0.79 |
| EXOC4 (exocyst complex component 4) | SID135622449 | 1.14 | 0.8 | 0.7 |
| RTL4 (retrotransposon Gag like 4) | SID152152772 | 1.05 | 0.61 | 0.58 |
| HTATIP2 (HIV-1 Tat interactive protein 2) | SID135623076 | 0.98 | 0.94 | 0.96 |
| ZNF559 (zinc finger protein 559) | SID134318990 | 1.14 | 1.12 | 0.98 |
| ZNF35 (zinc finger protein 35) | SID152156170 | 0.94 | 0.81 | 0.86 |
| ABCE1 (ATP binding cassette subfamily E member 1) | SID135621624 | 0.9 | 0.7 | 0.78 |
| GLIS1 (GLIS family zinc finger 1) | SID134320962 | 1.08 | 0.82 | 0.76 |
| BTNL3 (butyrophilin like 3) | SID152149854 | 1.25 | 0.9 | 0.72 |
| CTSO (cathepsin O) | SID135621083 | 1.14 | 0.91 | 0.8 |
| GORAB (golgin, RAB6 interacting) | SID152148545 | 0.91 | 0.78 | 0.86 |
| RCN1 (reticulocalbin 1) | SID134315722 | 1.12 | 0.9 | 0.8 |
| E2F5 (E2F transcription factor 5) | SID135620648 | 0.89 | 0.82 | 0.92 |
| MORC2 (MORC family CW-type zinc finger 2) | SID135625164 | 0.88 | 0.72 | 0.82 |
| MBD5 (methyl-CpG binding domain protein 5) | SID134326789 | 1.06 | 0.94 | 0.89 |
| TRHR (thyrotropin releasing hormone receptor) | SID152147162 | 0.84 | 0.62 | 0.74 |
| PLCL1 (phospholipase C like 1 (inactive)) | SID134314565 | 0.91 | 0.82 | 0.9 |
| HAPLN1 (hyaluronan and proteoglycan link protein 1) | SID134323298 | 1.61 | 1 | 0.62 |
| ESR1 (estrogen receptor 1) | SID135620667 | 0.89 | 0.84 | 0.94 |
| CASC3 (CASC3 exon junction complex subunit) | SID152147336 | 1.29 | 0.88 | 0.68 |
| NTN3 (netrin 3) | SID134323856 | 1.11 | 0.52 | 0.47 |
| C22orf31 (chromosome 22 open reading frame 31) | SID134324007 | 1.06 | 0.93 | 0.88 |
| DNAJA1 (DnaJ heat shock protein family (Hsp40) member A1) | SID134323394 | 0.63 | 0.49 | 0.78 |
| SLC16A8 | SID135621366 | 0.87 | 0.47 | 0.54 |
| CYP3A7 (cytochrome P450 family 3 subfamily A member 7) | SID134313496 | 1.28 | 1.13 | 0.88 |
| PGAM4 (phosphoglycerate mutase family member 4) | SID135625349 | 1.2 | 1.02 | 0.85 |
| SPEN (spen family transcriptional repressor) | SID152152288 | 1.47 | 0.88 | 0.6 |
| IGSF10 (immunoglobulin superfamily member 10) | SID134321904 | 1.26 | 1.15 | 0.91 |
| TMEM225 (transmembrane protein 225) | SID135624572 | 0.87 | 0.9 | 1.03 |
| DMRTC1 (DMRT like family C1) | SID135622875 | 1.12 | 0.86 | 0.77 |
| RFLNB (refilin B) | SID135623724 | 0.92 | 0.92 | 1 |
| PM20D1 (peptidase M20 domain containing 1) | SID134320716 | 0.84 | 0.54 | 0.64 |
| MAP3K4 (mitogen-activated protein kinase kinase kinase 4) | SID152151893 | 1.01 | 0.7 | 0.69 |
| PNCK (pregnancy up-regulated nonubiquitous CaM kinase) | SID152151558 | 1 | 0.92 | 0.92 |
| PIGV (phosphatidylinositol glycan anchor biosynthesis class V) | SID134319569 | 1.07 | 0.59 | 0.55 |
| ZMPSTE24 (zinc metallopeptidase STE24) | SID152155313 | 1.13 | 0.95 | 0.84 |
| SERPIND1 (serpin family D member 1) | SID135621797 | 1.2 | 0.72 | 0.6 |
| CDX2 (caudal type homeobox 2) | SID134319666 | 1.01 | 0.88 | 0.87 |
| CHRM1 (cholinergic receptor muscarinic 1) | SID56479071 | 0.92 | 0.81 | 0.88 |
| PIN4 (peptidylprolyl cis/trans isomerase, NIMA-interacting 4) | SID134323866 | 1.06 | 1.14 | 1.08 |
| GALNT2 (polypeptide N-acetylgalactosaminyltransferase 2) | SID134316181 | 1.01 | 0.77 | 0.76 |
| OR51S1 (olfactory receptor family 51 subfamily S member 1) | SID152150228 | 0.82 | 0.7 | 0.85 |
| CIRBP (cold inducible RNA binding protein) | SID134323920 | 0.56 | 0.46 | 0.82 |
| PKIA (cAMP-dependent protein kinase inhibitor alpha) | SID56479258 | 1.15 | 0.46 | 0.4 |
| GLRX5 (glutaredoxin 5) | SID135624121 | 1.18 | 0.92 | 0.78 |
| TNFSF12 (TNF superfamily member 12) | SID135621975 | 1.17 | 0.77 | 0.66 |
| ZNF721 (zinc finger protein 721) | SID152148047 | 1.26 | 0.88 | 0.7 |
| DNASE1 (deoxyribonuclease 1) | SID135623120 | 0.91 | 0.87 | 0.96 |
| OR5AP2 (olfactory receptor family 5 subfamily AP member 2) | SID134329822 | 0.68 | 0.48 | 0.71 |
| SELENOM (selenoprotein M) | SID134319278 | 1.25 | 1.01 | 0.81 |
| CRIPAK (retired record) | SID152149302 | 0.84 | 0.62 | 0.74 |
| OSTCP1 (oligosaccharyltransferase complex subunit pseudogene 1) | SID152153640 | 1.17 | 0.74 | 0.63 |
